Among the data in PubChem BioAssay AID1347426 (Functional Genomics Laboratory (NCATS/FGL), 2020) are median seed-adjusted z-score values, retold here.

Hit rate of the full screen: of about 31,000 sequences, about 1,400 (4.5%) were called active.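 Rule for the calls: active = median seed-adjusted z-score above 1 or below -1; inactive = the rest.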 Some of the results follow.

This assay in a line: Novel Modifiers of Survival Motor Neuron (SMN) Protein: Gene Identification via Genome-wide siRNA Screen.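 Note: luminescence tracks full-length SMN protein made from the SMN2 reporter.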 The conditions noted are these: HEK293T SMN2-luciferase reporter, siRNA knockdown, 72 h; actives lie on both sides. Summed up:
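Luciferase signal, proportional to full-length SMN made from an SMN2 cDNA reporter in stable HEK293T cells, was read 72 h after siRNA reverse transfection. Values were expressed as MAD scores after non-targeting-control normalization and log10 conversion; seed analysis flagged off-targets.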
(In general: In a reporter assay the amount or activity of a reporter protein is the signal.)
Turning to GAUACAACCUGAAGGAUGATT against PPP2R2C, the median seed-adjusted z-score was inactive: -0.87.
To GGAUUGUUGGAUAACCCUATT against SPTLC1 belongs inactive: 0.0941.
For GGAUUGGAAGUGCCGACUATT against TRIM67, the median seed-adjusted z-score is inactive: -0.431.
To CAGUUGUCCUUGUGGAUAATT against TTF1 belongs active: 1.76; to GUUCCUGAAGGAUCCCUAUTT against DGAT1, inactive: 0.148; to AAGCUGUAAUUAGCAAUGATT against NRL, inactive: -0.352.
GCAUGCUUCUACGAUAUAATT against AIFM1: the median seed-adjusted z-score was inactive: 0.0499.
To CGUUCGGUCUGACGCAGUATT against LRP5 belongs active: -1.
GAGUGAAGUAUAAUCCAUATT against TPH1: the median seed-adjusted z-score is inactive: -0.055.
To GAAUGGUGUUUUACUCUAUTT against ZFYVE26 belongs inactive: 0.0495; to CAAUUUUUCCCUGAAUAGATT against KLRC4, inactive: -0.218.
To GUCCUGUCUUGAUUAAAUUTT against CHST7 belongs inactive: 0; to GGACCACACUGGGACUUAUTT against SEL1L2, inactive: -0.342.
Under GGAGGAUGUUAGAUCAUGATT against TOP1MT stands inactive: 0.159; under CAAUGAAAAGGCUUAAAAATT against NEUROG1, inactive: 0.485.
For the sequence GGCACUUACUAUGACAAUUTT against EZH2, the median seed-adjusted z-score was inactive: 0.313.
Under GAAAAGCCCUGGUGCUUUATT against HABP2 stands inactive: -0.141; under CAAUGAGCCUCAUAACAAATT against SLC22A9, inactive: -0.778; under CCAUAUCUCUCGGUGUACATT against CDC42BPA, inactive: 0.257.
In the case of AGAUGAUGGAGCUCAAUGATT against GFAP, the median seed-adjusted z-score is inactive: -0.312.
As for CAAUCAUCUUUGCAAUUAUTT against KRTAP9-3, the median seed-adjusted z-score is inactive: -0.184.
Under CAGUGUCCAUGUACCUCUUTT against SLC37A4 stands inactive: -0.00202; under GUAUCUAUUCGGACAGAUATT against RAD1, inactive: -0.71.
Under GGUCUUUAAUUCGAAGCGATT against ZNF765 stands inactive: 0.541; under GGAUGUAAGAAAAGCAUGATT against ZFYVE1, inactive: -0.546; under CAAACUCACUAAUGAUUAUTT against SERPINB13, inactive: 0.0593.
To CGAUCUCAGAUAGAUCAGATT against ZHX2 belongs inactive: 0.0708; to GCCUCACCAUUGCAUGCAATT against S100A10, inactive: 0.366; to CAUUAUGAAUUGGAUAUCATT against EIF2C2, inactive: -0.183.
Take GGACAAUAAUGAGUACAUUTT against RNF145: the median seed-adjusted z-score is inactive: -0.554.
To GCUGAGAUUUUCAAUAAGATT against NR1H4 belongs inactive: -0.056.
To CACCUGUUCUAUCACAGUATT against NOP2 belongs active: 1.15; to GAUUGAUGGGUUUCCAAGATT against CMPK1, inactive: -0.363.
To GGGAUGUACUCGAACCUAUTT against ZNF292 belongs inactive: -0.481; to CCUCUAUCGUCUUACGAGATT against RAPGEF4, inactive: -0.197; to AGCACAAGAUUGGACCAAUTT against NME4, inactive: -0.155.
Take GAUCUAUUGUGACUCGAGATT against COL22A1: the median seed-adjusted z-score is inactive: 0.3.
To GUACAGACCUGAGAAUUCUTT against CTSL2 belongs active: -1.04.
Under GGAACACUGUAUAACACCATT against ATG7 stands inactive: -0.328.
Take GCACUGGAGUUGUCUCUUATT against NPTXR: the median seed-adjusted z-score was inactive: 0.0818.
To CGGUAUUAUUGUCAUUGCATT against UBE2K belongs inactive: 0.497; to ACACCAAGAAGAUAUGGAATT against ZNF681, inactive: 0.271; to GGGAGAAGGUGAGCAGUAUTT against ZYX, inactive: 0.273.
As for AAUCAAUGCUCAAACCACATT against CRADD, the median seed-adjusted z-score was inactive: -0.255.
To ACAUGUACCUGUAUUAAAATT against RLN2 belongs inactive: 0.877.
To GCUAUGCUGAUGACACGUUTT against RAB3B belongs inactive: -0.705; to GGAUAUCCUCCAUAAUGUUTT against SLC16A1, inactive: -0.277; to CGUCUUAUCUUUAGAGAUUTT against PPT1, inactive: 0.727.
To GCACAAAACAGCUGAGGCATT against OLFM1 belongs inactive: -0.103.
With GAUCGGAAGUUGCACCCAUTT against ARHGEF10, the median seed-adjusted z-score was inactive: 0.22.
CAUCUAGACUUGUAUGCAATT against ATP10B: the median seed-adjusted z-score was inactive: 0.51.
To CCCUGUAUGGGAUCACUUUTT against SCD belongs inactive: -0.982; to GCAUCGGAAGAUCAUUUUATT against THOC3, inactive: 0.689; to GACGUAACAUCAACAGAUATT against SV2B, inactive: -0.43.
To AGAAAAUCGUUUCCCACUATT against GJA8 belongs inactive: 0; to GAUGCGUUCAUGUCAGAAATT against SLC4A1AP, inactive: -0.0117; to CAGUGGUAAGAAAGAGAAATT against NRCAM, inactive: -0.0304.
In the case of AGAAUAUUAUGACUAUGGATT against KHDRBS1, the median seed-adjusted z-score was inactive: 0.0916.
As for GUCAAGAUCUGUAAGAGCATT against SGK269, the median seed-adjusted z-score was inactive: -0.171.
To GGAUGAGAAAGUCGUGAAATT against TSHZ2 belongs inactive: -0.361.
Turning to CCACAAGGGUUAUCUGUCATT against MAPK4, the median seed-adjusted z-score is inactive: 0.235.
As for GCCCUACAUGGUAAAUUCATT against GTDC1, the median seed-adjusted z-score was inactive: 0.2.
Under CAUUAUCUAUGAUUAUGGATT against OGN stands inactive: 0.0889.
To AAAUCAAUCCAGACAUGAATT against CD97 belongs inactive: 0.202.
Under GAUUGUCAAAGGGAAAAGATT against TTLL9 stands inactive: 0.0534; under GGGCAGAUGACACCUUUGATT against TCEB2, active: 1.28; under GGGAAGAUUUCGUUCAAAATT against CETN2, inactive: -0.0139.
For the sequence GAGGCUGAUUGGACGGAAATT against HSPA2, the median seed-adjusted z-score was inactive: -0.0343.
Take CUGACGAGCCGGGAAAAUATT against LCN1: the median seed-adjusted z-score was inactive: 0.0607.
To GCAAAUGAAGUGUCUCAAATT against DHRS11 belongs inactive: -0.476; to GAAAACAACCAUAAAGAAATT against SYT6, inactive: -0.072; to GAAGGAGAAUGGUAUCACUTT against GPATCH4, inactive: -0.519.
Under GAGUUUGACCCAAUAUGAATT against TYR stands inactive: 0.131; under CACCCAACACCAAACUGUATT against HSPB6, inactive: 0.394; under GAUCACGUUUGACAACAAATT against MCOLN1, inactive: -0.522.
Under CAACUCCGUGGUUACCAAATT against PQBP1 stands active: -1.12; under GGGUCAGUGCAUCUUCAAATT against ABCG4, inactive: -0.439.
GCAGCAAGGUGGUACAGAATT against FASTK: the median seed-adjusted z-score was inactive: 0.306.
To GGUUUUAAAGAACAGUUCATT against TAAR6 belongs inactive: -0.124; to CACUCUUCGUGGUGGGUAUTT against GHSR, inactive: 0.18; to GGACAUCCUCAAUCAGGGATT against N-PAC, inactive: 0.0542.
Under GAGGGACGAUGUCAACGUATT against RHOV stands inactive: -0.326; under GGAAAUUAUGUAGAACCGATT against ALDH7A1, inactive: -0.406; under GGAUGACAUUAAUUCCUAUTT against F9, inactive: 0.332.
For GGAUAUGAGAGGUUUACUATT against TOM1L1, the median seed-adjusted z-score is inactive: -0.0722.
In the case of ACAGCUUUAUUGCCGAGAATT against NOVA2, the median seed-adjusted z-score was inactive: 0.
For CCUCCAACCUGACUACUAATT against ZDHHC18, the median seed-adjusted z-score is inactive: -0.309.
Turning to GCUAAGACCAUGUUCCGGATT against IRF9, the median seed-adjusted z-score was inactive: 0.114.
On to GCCUUAGGGUUGUUCCUGUTT against CHMP1A, for which the median seed-adjusted z-score is inactive: 0.
Under GAUUAUUCCCACUACAUUUTT against TMEM11 stands inactive: -0.00121.
Under GGAUAUUUGGAAUUCUGAATT against FKBP9 stands inactive: 0.359; under AGAAGAUAUUUACAGCUCUTT against HSD17B11, inactive: 0.379; under CGAAAUCAAUAUGAACGAATT against STX8, inactive: 0.475.
Under AGGUGGAGUUGAUCCGGAATT against PIAS4 stands inactive: 0.265.
Take ACAACAUGAUCAUCGCCUATT against SLC6A7: the median seed-adjusted z-score is inactive: 0.00508.
Under GAACGUAAGAAAUACAAUUTT against HSPA4L stands inactive: 0.288.
To GGCACAUCUUAAACUCGGATT against NASP belongs inactive: 0.133.
To CAGAAUUGUUUGUUAUGAATT against MTIF2 belongs inactive: 0.236.
On to CCCAACCUAUCAUCCAGAUTT against KLF14, for which the median seed-adjusted z-score was inactive: 0.0241.
Take CACUGUAACGGGACUUUUATT against SOCS5: the median seed-adjusted z-score is inactive: 0.312.
Under AGUUUGUCCUGAAGAAUUATT against PTPN23 stands inactive: -0.0473; under CGGAGAACUUCAUCGGCAATT against MGAT5B, inactive: 0.
To AGACCUAUCUUUUUCUGUATT against TRIM48 belongs inactive: 0.
Under GGAUGUGAUUGGGUGGACATT against SIPA1L2 stands inactive: -0.573; under GGCUUGAUGCUGGUACUUUTT against HACL1, inactive: -0.0664; under CUAUAAUGGUUCCAGUAUATT against RFWD2, inactive: 0.662.
Take GUUACGAGAUGACAAUCUATT against ANAPC10: the median seed-adjusted z-score was inactive: 0.946.
